± gives the standard deviation of the averaged measurements. This is a selection; strong and weak results do not stand in their true shares. Most values lie at the level of the controls, where differences are scatter.
compound: Nc1ncnc2c1ncn2[C@@H]1O[C@H](COP(=O)(O)OP(=O)(O)NP(=O)(O)O)[C@@H](O)[C@H]1O [adenylyl imidodiphosphate]; assay: NP40-soluble protein abundance relative to vehicle (solubility fold change) (ratio); higher = more soluble protein in presence of AMP-PNP; settings: concentration: 0.1mM
In short: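 Across three independent experiments, values are fold changes against the detergent-processed vehicle for each replicate, based on vsn-normalised intensities. The samples were Jurkat crude lysate treated with eight concentrations (0.1 to 10 mM) for 10 min at room temperature and then 3 min at 37 °C. Lysate was solubilised with 0.8% NP40 and benzonase, ultracentrifuged, and the supernatant analysed by TMT-labelled LC-MS/MS.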

The chains behind the UniProt entries cited, without tags or fusion partners. Where a name states a change or a piece, a line headed by the entry shows the natural chain unless it says otherwise.
UniProt P50452: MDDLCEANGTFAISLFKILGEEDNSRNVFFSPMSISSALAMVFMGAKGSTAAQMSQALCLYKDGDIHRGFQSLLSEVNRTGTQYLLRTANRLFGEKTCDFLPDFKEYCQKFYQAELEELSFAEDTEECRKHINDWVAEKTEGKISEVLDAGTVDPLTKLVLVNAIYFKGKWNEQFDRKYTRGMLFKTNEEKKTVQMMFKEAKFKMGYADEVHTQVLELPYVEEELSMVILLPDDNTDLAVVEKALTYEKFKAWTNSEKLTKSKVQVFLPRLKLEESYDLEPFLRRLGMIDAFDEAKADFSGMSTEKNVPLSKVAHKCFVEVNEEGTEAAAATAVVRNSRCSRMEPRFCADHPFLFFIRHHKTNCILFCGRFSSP
UniProt P49327, whole entry, looked up: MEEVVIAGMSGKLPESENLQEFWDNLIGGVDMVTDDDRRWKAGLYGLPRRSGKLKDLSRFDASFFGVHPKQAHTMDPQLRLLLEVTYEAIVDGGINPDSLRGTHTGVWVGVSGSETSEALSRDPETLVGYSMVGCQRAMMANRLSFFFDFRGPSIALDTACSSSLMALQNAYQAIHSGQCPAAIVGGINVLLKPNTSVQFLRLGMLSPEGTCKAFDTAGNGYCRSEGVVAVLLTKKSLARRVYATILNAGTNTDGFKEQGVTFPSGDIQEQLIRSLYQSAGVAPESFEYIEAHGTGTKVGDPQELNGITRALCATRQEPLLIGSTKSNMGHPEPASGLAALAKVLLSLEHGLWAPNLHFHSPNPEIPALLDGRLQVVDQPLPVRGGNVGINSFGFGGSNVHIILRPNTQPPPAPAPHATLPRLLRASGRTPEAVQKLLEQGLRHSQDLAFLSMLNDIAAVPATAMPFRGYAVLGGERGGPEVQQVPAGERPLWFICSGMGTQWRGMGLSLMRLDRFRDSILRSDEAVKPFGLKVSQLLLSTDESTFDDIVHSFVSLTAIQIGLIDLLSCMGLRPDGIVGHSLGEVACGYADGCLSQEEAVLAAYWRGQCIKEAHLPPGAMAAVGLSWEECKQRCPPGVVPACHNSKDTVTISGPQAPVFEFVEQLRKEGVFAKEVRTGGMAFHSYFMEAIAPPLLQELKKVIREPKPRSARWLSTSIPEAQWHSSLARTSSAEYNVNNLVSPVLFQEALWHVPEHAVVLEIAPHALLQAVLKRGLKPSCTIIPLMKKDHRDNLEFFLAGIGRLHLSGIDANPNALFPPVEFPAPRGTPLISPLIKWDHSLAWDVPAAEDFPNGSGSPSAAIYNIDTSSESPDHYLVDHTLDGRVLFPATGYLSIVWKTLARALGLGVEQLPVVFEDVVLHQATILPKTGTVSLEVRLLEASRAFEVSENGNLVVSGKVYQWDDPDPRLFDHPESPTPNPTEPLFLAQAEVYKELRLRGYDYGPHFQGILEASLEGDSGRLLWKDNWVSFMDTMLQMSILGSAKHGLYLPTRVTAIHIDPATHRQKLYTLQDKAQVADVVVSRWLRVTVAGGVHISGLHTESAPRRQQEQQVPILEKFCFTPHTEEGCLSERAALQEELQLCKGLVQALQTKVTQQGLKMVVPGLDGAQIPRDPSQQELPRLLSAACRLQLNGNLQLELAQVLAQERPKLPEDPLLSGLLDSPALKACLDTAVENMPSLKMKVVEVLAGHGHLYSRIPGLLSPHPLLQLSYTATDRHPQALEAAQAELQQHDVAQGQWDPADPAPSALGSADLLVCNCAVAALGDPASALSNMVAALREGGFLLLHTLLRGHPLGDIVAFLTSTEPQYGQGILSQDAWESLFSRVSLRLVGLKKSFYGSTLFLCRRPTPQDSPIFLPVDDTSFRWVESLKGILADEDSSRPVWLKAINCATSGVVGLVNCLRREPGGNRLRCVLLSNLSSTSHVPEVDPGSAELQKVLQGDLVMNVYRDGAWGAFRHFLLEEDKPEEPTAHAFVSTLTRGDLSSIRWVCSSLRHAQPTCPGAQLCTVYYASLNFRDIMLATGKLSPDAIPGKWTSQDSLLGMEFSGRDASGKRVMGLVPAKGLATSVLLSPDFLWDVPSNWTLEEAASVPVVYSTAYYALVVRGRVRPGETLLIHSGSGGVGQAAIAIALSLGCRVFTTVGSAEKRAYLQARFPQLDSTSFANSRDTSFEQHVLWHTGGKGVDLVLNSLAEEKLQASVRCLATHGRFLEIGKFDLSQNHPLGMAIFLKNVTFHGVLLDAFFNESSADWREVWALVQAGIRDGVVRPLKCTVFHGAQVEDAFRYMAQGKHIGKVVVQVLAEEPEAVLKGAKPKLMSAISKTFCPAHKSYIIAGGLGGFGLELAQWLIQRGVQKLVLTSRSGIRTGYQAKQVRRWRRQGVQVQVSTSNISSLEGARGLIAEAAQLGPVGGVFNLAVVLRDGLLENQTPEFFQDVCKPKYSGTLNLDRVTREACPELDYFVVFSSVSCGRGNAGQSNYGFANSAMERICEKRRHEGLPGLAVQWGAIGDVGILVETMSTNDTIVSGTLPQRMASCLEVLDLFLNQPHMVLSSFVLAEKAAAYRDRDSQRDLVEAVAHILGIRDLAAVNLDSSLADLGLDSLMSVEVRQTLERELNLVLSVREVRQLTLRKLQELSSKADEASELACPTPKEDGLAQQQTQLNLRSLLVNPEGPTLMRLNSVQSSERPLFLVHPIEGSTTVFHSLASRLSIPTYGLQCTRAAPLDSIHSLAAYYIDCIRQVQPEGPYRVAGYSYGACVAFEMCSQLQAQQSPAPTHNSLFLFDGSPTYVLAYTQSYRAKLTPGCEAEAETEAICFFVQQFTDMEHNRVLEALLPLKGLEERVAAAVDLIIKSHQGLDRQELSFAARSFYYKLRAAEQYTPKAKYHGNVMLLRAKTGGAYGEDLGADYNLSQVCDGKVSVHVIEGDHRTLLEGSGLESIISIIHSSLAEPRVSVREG
UniProt P55060: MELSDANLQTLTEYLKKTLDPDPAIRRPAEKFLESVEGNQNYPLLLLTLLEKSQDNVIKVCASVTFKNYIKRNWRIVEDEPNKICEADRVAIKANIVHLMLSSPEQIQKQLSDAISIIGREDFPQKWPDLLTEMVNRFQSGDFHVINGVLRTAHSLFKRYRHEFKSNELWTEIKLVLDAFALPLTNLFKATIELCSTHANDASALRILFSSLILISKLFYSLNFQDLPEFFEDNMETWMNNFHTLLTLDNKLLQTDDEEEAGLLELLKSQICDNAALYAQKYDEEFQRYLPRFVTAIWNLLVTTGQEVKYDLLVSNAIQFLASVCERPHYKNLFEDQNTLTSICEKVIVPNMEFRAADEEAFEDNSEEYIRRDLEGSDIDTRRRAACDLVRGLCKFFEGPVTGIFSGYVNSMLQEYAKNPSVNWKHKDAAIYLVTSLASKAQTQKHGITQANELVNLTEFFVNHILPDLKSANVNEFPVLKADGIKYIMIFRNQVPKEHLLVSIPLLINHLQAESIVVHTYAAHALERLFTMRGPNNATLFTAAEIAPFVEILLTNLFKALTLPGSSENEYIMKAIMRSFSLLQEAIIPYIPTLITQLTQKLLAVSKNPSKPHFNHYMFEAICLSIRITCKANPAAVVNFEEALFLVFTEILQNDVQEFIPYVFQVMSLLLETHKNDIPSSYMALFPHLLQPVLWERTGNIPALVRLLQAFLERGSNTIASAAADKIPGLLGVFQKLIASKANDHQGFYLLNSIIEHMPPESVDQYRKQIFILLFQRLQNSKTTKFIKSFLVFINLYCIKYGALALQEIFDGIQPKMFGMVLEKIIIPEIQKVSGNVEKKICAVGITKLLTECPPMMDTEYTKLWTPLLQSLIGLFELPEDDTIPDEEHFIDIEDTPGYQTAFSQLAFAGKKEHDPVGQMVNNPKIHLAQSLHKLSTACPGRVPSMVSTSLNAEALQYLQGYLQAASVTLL
UniProt P42898: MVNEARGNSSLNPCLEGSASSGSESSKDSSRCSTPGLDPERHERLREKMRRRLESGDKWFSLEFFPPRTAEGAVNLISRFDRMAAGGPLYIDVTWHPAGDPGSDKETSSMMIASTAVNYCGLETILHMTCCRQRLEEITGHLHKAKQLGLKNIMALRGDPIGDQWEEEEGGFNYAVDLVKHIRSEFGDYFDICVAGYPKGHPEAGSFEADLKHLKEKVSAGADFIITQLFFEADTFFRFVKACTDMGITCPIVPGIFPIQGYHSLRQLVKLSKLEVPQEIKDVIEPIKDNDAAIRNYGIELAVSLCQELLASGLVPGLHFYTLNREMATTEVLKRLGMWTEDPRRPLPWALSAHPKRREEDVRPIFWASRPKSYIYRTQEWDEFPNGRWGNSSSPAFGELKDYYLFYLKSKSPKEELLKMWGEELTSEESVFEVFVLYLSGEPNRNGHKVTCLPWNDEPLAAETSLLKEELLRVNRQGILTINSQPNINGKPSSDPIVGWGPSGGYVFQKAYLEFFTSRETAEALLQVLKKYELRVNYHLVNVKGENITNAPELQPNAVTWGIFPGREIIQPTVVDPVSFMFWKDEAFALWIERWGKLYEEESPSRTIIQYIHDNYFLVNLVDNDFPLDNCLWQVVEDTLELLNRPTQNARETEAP
UniProt P43307: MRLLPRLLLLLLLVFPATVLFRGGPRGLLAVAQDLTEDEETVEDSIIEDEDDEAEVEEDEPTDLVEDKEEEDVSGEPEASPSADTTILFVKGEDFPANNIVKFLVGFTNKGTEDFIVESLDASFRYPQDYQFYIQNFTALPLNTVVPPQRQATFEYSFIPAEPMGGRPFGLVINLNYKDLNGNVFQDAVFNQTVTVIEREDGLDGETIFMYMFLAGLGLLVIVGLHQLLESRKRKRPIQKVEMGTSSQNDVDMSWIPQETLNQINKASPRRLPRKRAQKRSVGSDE
UniProt P43378: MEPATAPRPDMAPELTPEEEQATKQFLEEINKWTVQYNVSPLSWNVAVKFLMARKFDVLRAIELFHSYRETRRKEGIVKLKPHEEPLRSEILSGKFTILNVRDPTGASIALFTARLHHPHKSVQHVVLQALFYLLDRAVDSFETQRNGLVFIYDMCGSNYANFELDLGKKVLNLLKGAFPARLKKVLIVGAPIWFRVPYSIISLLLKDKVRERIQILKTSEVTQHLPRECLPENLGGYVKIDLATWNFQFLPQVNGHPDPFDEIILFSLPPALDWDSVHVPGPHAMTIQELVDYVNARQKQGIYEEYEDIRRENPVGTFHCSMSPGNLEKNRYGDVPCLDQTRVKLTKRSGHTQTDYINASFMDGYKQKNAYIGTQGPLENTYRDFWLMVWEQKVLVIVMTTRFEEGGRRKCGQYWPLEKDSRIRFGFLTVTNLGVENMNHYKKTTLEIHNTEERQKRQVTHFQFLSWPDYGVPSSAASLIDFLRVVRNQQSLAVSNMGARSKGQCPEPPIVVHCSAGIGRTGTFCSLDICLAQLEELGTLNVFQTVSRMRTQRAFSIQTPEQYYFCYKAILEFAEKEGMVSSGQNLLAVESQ
UniProt P42575: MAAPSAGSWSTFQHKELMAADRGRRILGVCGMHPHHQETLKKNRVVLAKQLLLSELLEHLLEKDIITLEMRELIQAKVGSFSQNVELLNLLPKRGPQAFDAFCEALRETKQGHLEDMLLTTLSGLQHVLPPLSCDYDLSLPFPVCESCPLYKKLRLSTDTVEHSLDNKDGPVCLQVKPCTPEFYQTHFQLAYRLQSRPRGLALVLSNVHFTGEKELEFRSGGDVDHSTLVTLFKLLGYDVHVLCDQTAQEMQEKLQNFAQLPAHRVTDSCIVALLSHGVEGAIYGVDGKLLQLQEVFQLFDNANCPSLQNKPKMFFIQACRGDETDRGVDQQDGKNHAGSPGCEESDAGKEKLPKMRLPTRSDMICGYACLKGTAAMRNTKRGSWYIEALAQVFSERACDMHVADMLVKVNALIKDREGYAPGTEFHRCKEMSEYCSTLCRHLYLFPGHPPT
UniProt P55211: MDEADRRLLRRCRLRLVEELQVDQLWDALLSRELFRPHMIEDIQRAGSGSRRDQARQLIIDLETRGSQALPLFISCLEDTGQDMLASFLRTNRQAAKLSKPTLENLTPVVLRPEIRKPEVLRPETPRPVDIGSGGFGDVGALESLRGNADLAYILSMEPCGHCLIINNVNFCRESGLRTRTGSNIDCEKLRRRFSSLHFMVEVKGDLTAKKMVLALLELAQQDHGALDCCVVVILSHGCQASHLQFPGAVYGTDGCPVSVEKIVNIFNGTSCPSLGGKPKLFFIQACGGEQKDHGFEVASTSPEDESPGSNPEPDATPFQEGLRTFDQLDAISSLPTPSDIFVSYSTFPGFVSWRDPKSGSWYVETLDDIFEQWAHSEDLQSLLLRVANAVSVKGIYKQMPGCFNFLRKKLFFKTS
UniProt P47224: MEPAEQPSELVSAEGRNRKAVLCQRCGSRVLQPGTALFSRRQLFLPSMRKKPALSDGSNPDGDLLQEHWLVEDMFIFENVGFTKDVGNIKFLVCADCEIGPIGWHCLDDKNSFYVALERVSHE
UniProt P49795: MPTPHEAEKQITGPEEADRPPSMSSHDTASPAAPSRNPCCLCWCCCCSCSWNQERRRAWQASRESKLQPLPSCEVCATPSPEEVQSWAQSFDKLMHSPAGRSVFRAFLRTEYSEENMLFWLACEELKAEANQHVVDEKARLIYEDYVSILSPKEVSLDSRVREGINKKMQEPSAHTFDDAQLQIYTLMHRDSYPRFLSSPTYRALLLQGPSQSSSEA

Target	NP40-soluble protein abundance
UniProt P55036 and related entries	0.988 ± 0.0039
SERPINB8 (UniProt P50452)	1.02 ± 0.022
PSMD7 (UniProt P51665)	1.01 ± 0.012
FASN (UniProt P49327)	1.01 ± 0.026
PREP (UniProt P48147)	1.03 ± 0.032
UniProt P49590 and related entries	1.06 ± 0.04
UniProt P55060 and related entries	1.02 ± 0.051
MTHFR (UniProt P42898)	1.01 ± 0.042
UniProt P43307 and related entries	1.02 ± 0.034
UniProt P41250	0.973 ± 0.025
GCLM (UniProt P48507)	1.01 ± 0.018
UniProt P51948 and related entries	0.991 ± 0.018
RPL34 (UniProt P49207)	1.03 ± 0.015
UniProt P54619 and related entries	1.06 ± 0.046
UniProt P53367 and related entries	1.01 ± 0.049
RPL21 (UniProt P46778)	1.09 ± 0.048
UniProt P53609 and related entries	1.034 ± 0.0098
RAD23B (UniProt P54727)	0.936 ± 0.03
PTPN9 (UniProt P43378)	1 ± 0.028

Target	NP40-soluble protein abundance
HADHA (UniProt P40939)	1 ± 0.02
UniProt P49641 and related entries	1 ± 0.027
UniProt P49407-2|P49407	0.999 ± 0.041
UniProt P53621 and related entries	1.02 ± 0.027
MTIF2 (UniProt P46199)	0.993 ± 0.018
CASP2 (UniProt P42575)	1.02 ± 0.038
UniProt P51795-2	0.996 ± 0.062
DHPS (UniProt P49366)	1 ± 0.017
UniProt P51648 and related entries	1.02 ± 0.023
UniProt P55211 and related entries	0.996 ± 0.058
HSD17B4 (UniProt P51659)	1.04 ± 0.022
MCM2 (UniProt P49736)	0.99 ± 0.043
TRAPPC10 (UniProt P48553)	0.977 ± 0.02
RAB9A (UniProt P51151)	0.977 ± 0.015
CCT4 (UniProt P50991)	1.02 ± 0.032
RABIF (UniProt P47224)	0.985 ± 0.018
RGS19 (UniProt P49795)	1 ± 0.024
FNTB (UniProt P49356)	1.02 ± 0.028
UniProt P53396 and related entries	1.03 ± 0.031

same assay, conditions: concentration: 0.5mM

Target	NP40-soluble protein abundance
UniProt P55036 and related entries	0.983 ± 0.023
SERPINB8 (UniProt P50452)	0.998 ± 0.03
PSMD7 (UniProt P51665)	0.956 ± 0.065
FASN (UniProt P49327)	0.984 ± 0.071
PREP (UniProt P48147)	0.994 ± 0.074
UniProt P49590 and related entries	0.94 ± 0.071
UniProt P55060 and related entries	1.01 ± 0.02
MTHFR (UniProt P42898)	1.03 ± 0.055
UniProt P43307 and related entries	0.969 ± 0.083
UniProt P41250	1.002 ± 0.0081
GCLM (UniProt P48507)	1.03 ± 0.017
UniProt P51948 and related entries	1.03 ± 0.04
RPL34 (UniProt P49207)	1.035 ± 0.0036
UniProt P54619 and related entries	0.982 ± 0.13
UniProt P53367 and related entries	1.03 ± 0.032
RPL21 (UniProt P46778)	1.03 ± 0.035
UniProt P53609 and related entries	1.01 ± 0.019
RAD23B (UniProt P54727)	0.938 ± 0.057
PTPN9 (UniProt P43378)	1 ± 0.049

Target	NP40-soluble protein abundance
HADHA (UniProt P40939)	0.988 ± 0.059
UniProt P49641 and related entries	0.978 ± 0.049
UniProt P49407-2|P49407	1.05 ± 0.042
UniProt P53621 and related entries	0.997 ± 0.077
MTIF2 (UniProt P46199)	1.01 ± 0.016
CASP2 (UniProt P42575)	0.985 ± 0.057
UniProt P51795-2	0.949 ± 0.0036
DHPS (UniProt P49366)	1.01 ± 0.027
UniProt P51648 and related entries	0.981 ± 0.096
UniProt P55211 and related entries	0.982 ± 0.012
HSD17B4 (UniProt P51659)	1.03 ± 0.028
MCM2 (UniProt P49736)	0.975 ± 0.049
TRAPPC10 (UniProt P48553)	0.979 ± 0.03
RAB9A (UniProt P51151)	0.997 ± 0.013
CCT4 (UniProt P50991)	0.963 ± 0.096
RABIF (UniProt P47224)	0.988 ± 0.011
RGS19 (UniProt P49795)	1.01 ± 0.022
FNTB (UniProt P49356)	1.032 ± 0.0059
UniProt P53396 and related entries	0.988 ± 0.092
